Percent effect of library compounds

From ChEMBL document CHEMBL3988442, “University of Dundee, Small-Polar-MMV Screening Library” (2021).

Results are given as percent effect.
The controls that fix the scale are not given in the record; negative values are as filed.
This is an unselected part of the compounds tested.
Two or more numbers in one place are separate tests of the same structure; such repeats can differ widely.

A: 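Phenotypic screen: M. tuberculosis growth, glucose 7H9 medium, 3 days; the read-out is not stated. Compounds at 50 µM. The record gives no direction; compounds that gave an IC50 in retests scored well above the rest, so higher reads as more growth inhibition. Size under these conditions: about 69,000 compounds, about 760 of them at 50% or above in at least one test.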
B: 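Phenotypic screen: M. tuberculosis growth, cholesterol and DPPC medium, 4 days; the read-out is not stated. Concentration: 50 µM. Direction is inferred from retests: higher values go with more growth inhibition. Of about 69,000 compounds tested this way, about 370 (0.54%) reached 50% or more in at least one test.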

SMILES | A | B
COc1ccc(CNc2cc(-c3nc(C)no3)ccn2)c(OC)c1 | -13.63% & 11.51% | -13.89%
Cc1cccc(COc2ccccc2C(=O)N2CCC(C(N)=O)CC2)c1 | -29.96% | -14.68%
CCc1ncc2c(n1)CN(Cc1nc3c(F)cccc3[nH]1)CC2 | -31.46% | -9.872%
COCCn1cnc2ccc(NC(=O)C(C)C)cc2c1=O | -5.898% | -2.999%
COc1ccccc1C1(C(=O)NCCN2CCOCC2)CCOCC1 | -23.45% | -31.65%
CCn1cc(-c2cc(C(=O)N3CCOCC3)c3cc(Cl)ccc3n2)cn1 | 52.31% | 19.35%
CCCN1CCC(CNC(=O)C2(c3ccccc3)CCC2)C1 (stereo not given) | -1.85% | -10.52%
CS(=O)(=O)NC1CCCN(C(=O)Nc2cccnc2N2CCCC2)C1 (stereo not given) | -13.43% | -2.436%
O=C(NCCO)c1coc(CN2CCN(c3ccccc3F)CC2)n1 | -5.003% | 13.11%
c1cc(-c2cnccn2)cc(-c2ccn(CCN3CCCC3)n2)c1 | 13.9% | 29.6%
Cc1nc(C)c(C(=O)N2CCC(Nc3cccnc3)CC2)s1 | -3.141% | -3.019%
CC(C)(C)C(O)CCNC(=O)c1ccc(F)cc1Cl (stereo not given) | -5.107% & -0.1773% | 0.3786%
CN1CCCCCC1C(=O)NCCCn1ncc2ccccc21 (stereo not given) | -0.5853% | -8.156%
CCS(=O)(=O)c1ccc(N2CCC(NC(=O)CC3CCCC3)CC2)cc1 | 7.349% | 5.241%
CC(C)n1[nH]c(=O)c2c1NC(=O)CC2c1cccc(OC(F)F)c1 (stereo not given) | -10.97% | -46.05%
CCCN1CCC(NC(=O)NCCc2nc(CC)c(C)s2)CC1 | 21.77% | -0.7075% & -5.468%

Some entries from above, unchanged:

SMILES	A	B
CCCN1CCC(NC(=O)NCCc2nc(CC)c(C)s2)CC1	21.77%	-0.7075% & -5.468%
CC(C)(C)C(O)CCNC(=O)c1ccc(F)cc1Cl (stereo not given)	-5.107% & -0.1773%	0.3786%